# Laboratory results from PubChem BioAssay AID1259415 (National Center for Advancing Translational Sciences (NCATS), 2018).
# Among all 410,000 compounds or so, about 18,000 (4.4%) were called active. Inconclusive results, whose numbers are uncertain, are shown with a selection of clear calls. Rule as the data show it: active = activity change below about -60%; inconclusive = no clear call, values can overlap the other calls; inactive = above about -39%.
# Experiment: qHTS Assay for inhibitors of the human cytomegalovirus (HCMV)
# Details: HFF cells, HCMV-luciferase reporter, 72 h; at 57.5 µM; hits give low values
# Outline: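 Human foreskin fibroblasts infected with luciferase-reporter HCMV at MOI 1 PFU/cell, compounds at two doses. Luciferase measured 72 h post infection; normalized to buffer-only basal and Salinomycin (10uM) controls.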
# % is scaled to controls: 0 for no effect and ±100 for the full control effect.
row,SMILES,"activity change, negative = inhibition"
1,COC(=O)Nc1nc2ccc(C(=O)C3CC3)cc2[nH]1,inconclusive: -57.9%
2,Cc1ccc2nc(-c3ccc(O)cc3)oc2c1,inactive: 91.7%
3,COc1ccc(-c2oc3c(OC)c(OC)c(OC)c(O)c3c(=O)c2OC)cc1OC,inconclusive: -48.5%
4,Cc1ccc(S(=O)(=O)N(C)C)cc1NC(=O)COC(=O)c1sc2cc(Cl)ccc2c1Cl,inactive: -3.61%
5,O=C(c1cc(Br)c[nH]1)N1CCSCC1,inconclusive: -48.8%
6,COc1ccc(-c2nn(-c3ccccc3)cc2/C=N/Nc2cccc(C(=O)O)c2)cc1,active: -61%
7,COc1ccccc1C1(O)C(=O)Nc2ccc(C)cc21 (stereo unspecified),inactive: -13.3%
8,COc1ccc(CNC(=O)c2cc(COc3c(F)cccc3F)on2)cc1OC,inconclusive: -49.6%
9,CCOC(=O)C1CCN(C(=O)c2ccccc2)c2scc(-c3ccccc3)c2C1=O (stereo unspecified),inconclusive: -49.7%
10,COc1ccc(C(CC(=O)N2CCOCC2)c2c(OC)cc(OC)c3c(-c4ccccc4)cc(=O)oc23)cc1 (stereo unspecified),inconclusive: -41.5%
11,N#Cc1ccc2nc(-c3ccc(CN4CCC(n5cc(-c6ccccc6)[nH]c5=O)CC4)cc3)c(-c3ccccc3)nc2c1,active: -99%
12,O=C(CCNC(=O)c1ccc(Br)cc1)Nc1ccccc1N1CCCC1,inactive: -11.4%
13,Cc1cc(Br)ccc1NC(=O)CN(C)Cc1cccs1,inactive: -21.3%
14,Cc1cccc(C(=O)Nc2sc3c(c2C(=O)N2CCCCC2)CCC(C)C3)c1 (stereo unspecified),inactive: -4.01%
15,Cc1ccc(CN(Cc2ccco2)C(=S)Nc2ccccc2C)cc1,inconclusive: -54.9%
16,COc1ccc(CC(NC(C)=O)C(=O)NC2CCN(C(=O)C3CCCCC3)CC2)cc1OC (stereo unspecified),active: -67.7%
17,Cc1cccc(NC(=O)C2C3CCC4C(CCC32)C4(Cl)Cl)c1 (stereo unspecified),inconclusive: -41.1%
18,O=C(c1cc([N+](=O)[O-])ccc1N1CCCCC1)N1CCc2ccccc21,inconclusive: -41.3%
19,CCOC(=O)C1(Cc2ccc(Cl)cc2)CCN(C2CCC2)CC1,inconclusive: -48.9%

row,SMILES,"activity change, negative = inhibition"
1,CC(C)(C)c1ccc(Cn2c(Cc3ccccc3)nc3ccccc32)cc1,inactive: -35.3%
2,CCN1C(=O)CC(N2CCC(Nc3ccc(F)cc3)CC2)C1=O (stereo unspecified),inactive: -31.5%
3,Cc1ccc(S(=O)(=O)Nc2ccc3c(c2)C(=O)N([C@H](C)CO)C[C@H](C)[C@@H](CN(C)Cc2ccccc2)O3)cc1,inactive: 29.6%
4,CCOC(=O)c1c(CSC(=N)N)n(-c2ccccc2)c2cc(Br)c(OC(C)=O)cc12,inconclusive: -58.5%
5,COc1ccc(/C=N/Nc2ncnc3sc(C)c(C)c23)cc1,inactive: -12.1%
6,CN(C)C(=O)CSc1n[nH]c(=O)[nH]c1=O,inconclusive: -41%
7,Cc1cc(NCc2ccccc2)c2ccccc2n1,inconclusive: -41.8%
8,CN(c1ccccc1)S(=O)(=O)c1ccc(NC(=O)c2cccs2)cc1,inconclusive: -41.1%
9,COc1ccc2oc(C(=O)OCC(=O)N(CC(C)C)c3c(N)n(Cc4ccccc4)c(=O)[nH]c3=O)c(C)c2c1,inconclusive: -52%
10,CC1(C(=O)NS(=O)(=O)c2ccc(Br)cc2)CCN1C(=O)Cc1cccs1 (stereo unspecified),inconclusive: -46.2%
11,O=c1sc(N2CCN(c3ccccc3F)CC2)nc2ccsc12,inactive: 79.3%
12,COC(=O)[C@@H](NC(=O)NC(C)CCc1ccccc1)C(C)C (stereo partly specified),inconclusive: -49.7%
13,Cc1ccccc1Cn1c(=O)[nH]c2ccccc21,inconclusive: -51.3%
14,CC(/C=C/c1ccc2c(c1)OCO2)=N\NC(=O)COc1ccccc1C,inconclusive: -47.7%
15,Cc1ccc(C)c(OCCCCn2ccnc2)c1,inconclusive: -43.5%
16,Cc1ccc(CNS(=O)(=O)c2ccc3c(c2)n(C)c(=O)c(=O)n3C)cc1,inconclusive: -55.7%
17,O=C(NN1C(=O)C2CCCCC2C1=O)c1ccco1 (stereo unspecified),inactive: 3.07%
18,CC12CCC(=O)N1C(C(=O)Nc1cc(C(F)(F)F)ccc1N1CCOCC1)CS2 (stereo unspecified),inactive: -7.77%
19,CCOC(=O)c1nn(-c2ccccc2)c(=O)c(C#N)c1C,inactive: 3.91%

row,SMILES,"activity change, negative = inhibition"
1,CCCc1c(C(=O)N/N=C(\C)c2cc(C)sc2C)nnn1-c1nonc1N,inconclusive: -43.5%
2,COc1ccc(S(=O)(=O)NCC(=O)N(CC(=O)NCC2CCCO2)c2c(C)cccc2C)cc1 (stereo unspecified),inconclusive: -40.1%
3,CC(C)C(=O)Nc1ccc(Cc2ccc(NC(=O)C(C)C)c(O)c2)cc1O,inconclusive: -56.2%
4,CC(=NNC(=S)N1CCCCCC1)c1cccc2cccnc12,active: -74.9%
5,COc1ccc(NC(=O)C(C)n2nc(-c3ccc(C)c(C)c3)ccc2=O)cc1OC (stereo unspecified),inactive: 10.3%
6,O=c1c2ccc(Cl)cc2nc(-c2ccc([N+](=O)[O-])cc2)n1O,active: -97.9%
7,Cc1cc2ccccc2c(=O)n1CC(=O)NCC(=O)N1CCCC1,inactive: 6.53%
8,O=C(O)c1[nH]c2ccccc2c1C(c1ccccc1)c1c(C(=O)O)[nH]c2ccccc12,inactive: 69.9%
9,C[C@H]1CCC[C@H](O)CCCCCc2cc(O)cc(O)c2C(=O)O1,active: -98%
10,COc1ccc(CCNC(=O)c2ccc3c(c2)N(Cc2c(F)cccc2Cl)C(=O)CS3)cc1OC,inconclusive: 0%
11,O=C(NNC(=O)c1cccnc1)NC12CC3CC(CC(C3)C1)C2,inconclusive: -56.5%
12,O=C(Nc1cc(Cl)cc(Cl)c1)c1ccc(F)c(S(=O)(=O)N2CCc3ccccc32)c1,active: -96.1%
13,O=C(N[C@H]1CC[C@@]23CCCN2C(=O)CCC[C@H]3[C@H]1Cc1ccccc1)c1cccc(Cl)c1,active: -65.2%
14,COc1ccc(OCC#CCN2CCC(C)CC2)cc1,inconclusive: -49.6%
15,O=C(Nc1cccc(S(=O)(=O)N2CCCC2)c1)c1ccc2ccccc2n1,inconclusive: -49.1%
16,Cc1nc2ccccc2n1Cc1ccc(Br)cc1,inconclusive: -44.6%
17,CCOc1cc(NC(=O)C2CCCCC2)c(OCC)cc1NC(=O)c1ccccn1,inconclusive: -50.8%
18,O=C(O)CCCC(=O)Nc1cccc([N+](=O)[O-])c1,inconclusive: -41.5%

# Reformatted with bars between the fields: part of the list above
row | SMILES | activity change, negative = inhibition
1 | CCCc1c(C(=O)N/N=C(\C)c2cc(C)sc2C)nnn1-c1nonc1N | inconclusive: -43.5%
3 | CC(C)C(=O)Nc1ccc(Cc2ccc(NC(=O)C(C)C)c(O)c2)cc1O | inconclusive: -56.2%
6 | O=c1c2ccc(Cl)cc2nc(-c2ccc([N+](=O)[O-])cc2)n1O | active: -97.9%
7 | Cc1cc2ccccc2c(=O)n1CC(=O)NCC(=O)N1CCCC1 | inactive: 6.53%
8 | O=C(O)c1[nH]c2ccccc2c1C(c1ccccc1)c1c(C(=O)O)[nH]c2ccccc12 | inactive: 69.9%
9 | C[C@H]1CCC[C@H](O)CCCCCc2cc(O)cc(O)c2C(=O)O1 | active: -98%
10 | COc1ccc(CCNC(=O)c2ccc3c(c2)N(Cc2c(F)cccc2Cl)C(=O)CS3)cc1OC | inconclusive: 0%
11 | O=C(NNC(=O)c1cccnc1)NC12CC3CC(CC(C3)C1)C2 | inconclusive: -56.5%
12 | O=C(Nc1cc(Cl)cc(Cl)c1)c1ccc(F)c(S(=O)(=O)N2CCc3ccccc32)c1 | active: -96.1%
13 | O=C(N[C@H]1CC[C@@]23CCCN2C(=O)CCC[C@H]3[C@H]1Cc1ccccc1)c1cccc(Cl)c1 | active: -65.2%
14 | COc1ccc(OCC#CCN2CCC(C)CC2)cc1 | inconclusive: -49.6%
15 | O=C(Nc1cccc(S(=O)(=O)N2CCCC2)c1)c1ccc2ccccc2n1 | inconclusive: -49.1%
18 | O=C(O)CCCC(=O)Nc1cccc([N+](=O)[O-])c1 | inconclusive: -41.5%
